Reference: US20210221847A1
Results are given in words; binding and its absence hold for the method and conditions named. Some entries that bind do so weakly or less than the wild type.

By UniProt entry, the sequences of proteins in these tests, tags left out. Residues count along the entry.
UniProt P06733, residues 2-434: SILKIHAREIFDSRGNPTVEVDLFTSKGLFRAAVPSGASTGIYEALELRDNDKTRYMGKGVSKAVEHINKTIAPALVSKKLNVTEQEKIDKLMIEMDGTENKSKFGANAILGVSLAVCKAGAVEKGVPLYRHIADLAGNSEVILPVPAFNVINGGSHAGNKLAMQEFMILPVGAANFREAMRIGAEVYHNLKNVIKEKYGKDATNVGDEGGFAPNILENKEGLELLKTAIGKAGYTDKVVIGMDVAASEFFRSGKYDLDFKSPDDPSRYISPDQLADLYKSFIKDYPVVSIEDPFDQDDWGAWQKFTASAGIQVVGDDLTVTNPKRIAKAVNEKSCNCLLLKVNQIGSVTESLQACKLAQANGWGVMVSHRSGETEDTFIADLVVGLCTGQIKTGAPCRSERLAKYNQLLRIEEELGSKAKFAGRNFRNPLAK
UniProt P04114, residues 28-4563: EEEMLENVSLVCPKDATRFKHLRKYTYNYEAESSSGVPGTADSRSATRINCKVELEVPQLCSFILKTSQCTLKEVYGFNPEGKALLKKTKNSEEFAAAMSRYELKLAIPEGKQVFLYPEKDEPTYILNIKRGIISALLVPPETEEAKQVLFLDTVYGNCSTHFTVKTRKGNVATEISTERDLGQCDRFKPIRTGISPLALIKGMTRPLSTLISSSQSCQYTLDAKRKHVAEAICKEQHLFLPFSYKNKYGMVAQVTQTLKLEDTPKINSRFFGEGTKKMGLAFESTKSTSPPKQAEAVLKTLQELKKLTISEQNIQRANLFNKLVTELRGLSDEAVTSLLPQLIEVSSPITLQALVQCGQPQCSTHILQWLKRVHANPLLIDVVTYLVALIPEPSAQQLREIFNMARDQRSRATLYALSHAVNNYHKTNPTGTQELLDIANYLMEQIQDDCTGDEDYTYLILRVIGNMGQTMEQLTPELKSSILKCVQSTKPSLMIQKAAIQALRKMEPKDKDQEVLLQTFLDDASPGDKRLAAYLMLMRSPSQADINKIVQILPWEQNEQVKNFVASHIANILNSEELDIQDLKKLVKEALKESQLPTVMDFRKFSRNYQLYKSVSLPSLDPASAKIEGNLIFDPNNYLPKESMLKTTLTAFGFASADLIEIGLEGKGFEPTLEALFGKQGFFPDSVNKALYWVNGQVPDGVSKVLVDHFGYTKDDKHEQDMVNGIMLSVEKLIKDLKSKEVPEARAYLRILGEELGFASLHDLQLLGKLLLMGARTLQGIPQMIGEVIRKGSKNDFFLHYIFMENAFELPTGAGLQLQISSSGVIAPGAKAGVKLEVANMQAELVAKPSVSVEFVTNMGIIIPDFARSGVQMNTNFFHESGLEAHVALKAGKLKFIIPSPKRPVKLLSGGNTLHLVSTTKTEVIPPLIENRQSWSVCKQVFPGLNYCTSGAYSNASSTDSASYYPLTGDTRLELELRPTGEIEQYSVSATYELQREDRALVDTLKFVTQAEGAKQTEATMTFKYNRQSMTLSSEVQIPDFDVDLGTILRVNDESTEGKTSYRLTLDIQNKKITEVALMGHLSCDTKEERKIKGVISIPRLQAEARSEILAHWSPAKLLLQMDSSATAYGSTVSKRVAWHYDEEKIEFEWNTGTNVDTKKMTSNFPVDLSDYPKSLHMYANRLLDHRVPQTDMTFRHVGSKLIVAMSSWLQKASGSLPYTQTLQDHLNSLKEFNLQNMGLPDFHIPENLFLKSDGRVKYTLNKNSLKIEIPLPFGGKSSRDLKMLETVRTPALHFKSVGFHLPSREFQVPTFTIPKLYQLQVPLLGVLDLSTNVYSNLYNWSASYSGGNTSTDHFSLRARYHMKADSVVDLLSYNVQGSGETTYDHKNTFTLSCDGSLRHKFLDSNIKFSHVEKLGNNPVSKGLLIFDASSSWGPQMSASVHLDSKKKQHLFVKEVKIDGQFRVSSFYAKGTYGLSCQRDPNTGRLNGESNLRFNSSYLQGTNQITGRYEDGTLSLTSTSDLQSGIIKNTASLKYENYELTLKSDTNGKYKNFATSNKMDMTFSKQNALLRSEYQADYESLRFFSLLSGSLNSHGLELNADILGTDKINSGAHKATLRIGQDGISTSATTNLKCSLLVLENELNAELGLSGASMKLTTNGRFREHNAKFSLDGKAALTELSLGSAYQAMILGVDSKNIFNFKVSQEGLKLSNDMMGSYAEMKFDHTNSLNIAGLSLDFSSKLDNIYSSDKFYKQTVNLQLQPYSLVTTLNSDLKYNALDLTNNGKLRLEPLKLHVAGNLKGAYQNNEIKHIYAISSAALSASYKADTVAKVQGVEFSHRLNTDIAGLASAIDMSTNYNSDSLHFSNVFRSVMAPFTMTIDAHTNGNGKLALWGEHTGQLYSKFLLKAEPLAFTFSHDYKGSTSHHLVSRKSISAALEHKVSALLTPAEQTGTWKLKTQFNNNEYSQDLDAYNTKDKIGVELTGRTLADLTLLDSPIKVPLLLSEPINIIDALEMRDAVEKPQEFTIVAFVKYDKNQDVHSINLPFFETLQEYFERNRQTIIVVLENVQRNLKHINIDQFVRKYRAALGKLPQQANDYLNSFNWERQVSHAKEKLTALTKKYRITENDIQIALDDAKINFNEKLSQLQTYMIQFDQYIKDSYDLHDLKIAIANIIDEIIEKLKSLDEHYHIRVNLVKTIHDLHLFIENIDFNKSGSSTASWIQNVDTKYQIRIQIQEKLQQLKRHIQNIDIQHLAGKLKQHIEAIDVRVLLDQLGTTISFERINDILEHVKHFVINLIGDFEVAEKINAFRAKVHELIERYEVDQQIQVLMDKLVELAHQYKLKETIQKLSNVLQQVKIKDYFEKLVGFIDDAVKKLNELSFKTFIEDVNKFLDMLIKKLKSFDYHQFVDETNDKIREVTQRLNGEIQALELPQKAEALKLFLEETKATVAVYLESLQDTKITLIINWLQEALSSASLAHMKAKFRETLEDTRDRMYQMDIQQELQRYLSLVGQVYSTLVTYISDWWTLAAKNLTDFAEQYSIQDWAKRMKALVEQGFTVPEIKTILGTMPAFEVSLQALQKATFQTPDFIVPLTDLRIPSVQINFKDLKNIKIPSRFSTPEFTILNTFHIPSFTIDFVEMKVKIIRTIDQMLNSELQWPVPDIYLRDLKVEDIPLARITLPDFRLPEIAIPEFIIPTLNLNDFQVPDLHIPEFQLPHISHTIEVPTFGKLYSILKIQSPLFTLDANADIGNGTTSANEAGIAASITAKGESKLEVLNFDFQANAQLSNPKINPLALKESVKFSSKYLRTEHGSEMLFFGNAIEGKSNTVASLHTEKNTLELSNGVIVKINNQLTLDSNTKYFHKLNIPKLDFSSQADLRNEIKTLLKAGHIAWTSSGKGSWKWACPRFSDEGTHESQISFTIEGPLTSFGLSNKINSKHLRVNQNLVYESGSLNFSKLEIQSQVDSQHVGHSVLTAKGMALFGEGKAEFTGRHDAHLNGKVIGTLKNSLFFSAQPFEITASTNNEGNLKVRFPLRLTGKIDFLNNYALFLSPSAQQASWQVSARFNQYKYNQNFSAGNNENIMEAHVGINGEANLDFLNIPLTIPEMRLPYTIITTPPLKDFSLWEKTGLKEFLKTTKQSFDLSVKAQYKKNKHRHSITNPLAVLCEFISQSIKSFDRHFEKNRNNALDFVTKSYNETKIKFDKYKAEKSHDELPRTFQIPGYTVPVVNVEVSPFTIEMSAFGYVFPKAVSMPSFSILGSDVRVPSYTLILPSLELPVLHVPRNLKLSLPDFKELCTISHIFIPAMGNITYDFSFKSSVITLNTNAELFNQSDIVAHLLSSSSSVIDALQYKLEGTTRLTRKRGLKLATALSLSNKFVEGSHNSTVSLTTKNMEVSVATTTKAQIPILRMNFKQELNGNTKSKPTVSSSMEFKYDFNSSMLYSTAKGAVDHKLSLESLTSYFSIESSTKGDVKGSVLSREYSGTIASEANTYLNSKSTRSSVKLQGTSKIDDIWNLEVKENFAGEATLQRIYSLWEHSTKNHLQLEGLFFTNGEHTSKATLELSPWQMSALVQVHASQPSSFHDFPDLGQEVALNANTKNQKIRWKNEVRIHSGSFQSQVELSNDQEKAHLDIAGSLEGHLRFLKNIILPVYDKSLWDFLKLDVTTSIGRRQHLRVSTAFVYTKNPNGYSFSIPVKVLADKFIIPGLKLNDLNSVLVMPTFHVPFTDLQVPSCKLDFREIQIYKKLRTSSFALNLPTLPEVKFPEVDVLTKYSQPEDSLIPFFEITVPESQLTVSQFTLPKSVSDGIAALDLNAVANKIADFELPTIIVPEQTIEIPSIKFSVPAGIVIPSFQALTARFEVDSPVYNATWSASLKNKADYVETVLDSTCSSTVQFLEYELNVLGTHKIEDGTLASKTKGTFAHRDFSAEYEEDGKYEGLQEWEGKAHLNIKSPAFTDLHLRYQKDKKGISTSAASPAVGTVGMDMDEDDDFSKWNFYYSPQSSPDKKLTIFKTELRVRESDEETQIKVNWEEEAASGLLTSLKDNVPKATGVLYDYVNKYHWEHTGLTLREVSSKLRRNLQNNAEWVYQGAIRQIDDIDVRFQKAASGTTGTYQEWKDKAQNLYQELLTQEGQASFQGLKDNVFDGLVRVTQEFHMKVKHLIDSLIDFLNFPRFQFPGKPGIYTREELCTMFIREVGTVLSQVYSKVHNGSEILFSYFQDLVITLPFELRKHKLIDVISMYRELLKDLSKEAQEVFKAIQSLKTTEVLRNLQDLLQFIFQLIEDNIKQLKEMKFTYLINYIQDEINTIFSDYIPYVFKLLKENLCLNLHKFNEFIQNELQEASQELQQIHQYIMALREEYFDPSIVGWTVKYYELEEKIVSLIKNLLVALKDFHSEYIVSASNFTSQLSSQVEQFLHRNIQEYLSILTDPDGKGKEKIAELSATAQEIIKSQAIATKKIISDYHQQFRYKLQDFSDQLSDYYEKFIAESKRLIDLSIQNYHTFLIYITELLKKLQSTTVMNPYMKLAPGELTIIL

Target: ENO1 (α-enolase) (human (rheumatoid arthritis patient)) (UniProt P06733)
Assay: immunoblotting, confocal microscopy, BIACORE system and ELISA

Substance: apolipoprotein B100 (apoB100) (from UniProt P04114 28-4563) (ligand)
- binding: binds
